Data reported in article PMC6902473 (Clinical Epigenetics, 2019).
Values joined by “and” are separate entries in the source; they are usually repeats but may differ in a detail not shown here. Equal entries are not always repeated.

Experiment: clinical
Conditions: human, in vivo
From the text: The assays were validated according to the common FDA and EMA guidelines on bioanalytical method validation.

## O=C(CCCCCCC(=O)Nc1ccccc1)NO [vorinostat]
214 mg/m2, Vz
  Vd: 646 L
250 mg/m2, Cmax
  Cmax: 2.67 µM and 704 ng/mL
280 mg/m2
  Vz: 529 L
280 mg/m2, Vz
  Vd: 466 L
po, 580 mg/m2
  Vz, Minimum: 377 L
